Experimental data published in paper PMC4965873.
Results are given in words; binding and its absence hold for the method and conditions named. In cells and extracts the contact can be indirect. Some binding calls cover weakened binding; strength is not graded here.

By UniProt entry, the sequences of proteins in these tests, tags left out.
UniProt Q3TTA7: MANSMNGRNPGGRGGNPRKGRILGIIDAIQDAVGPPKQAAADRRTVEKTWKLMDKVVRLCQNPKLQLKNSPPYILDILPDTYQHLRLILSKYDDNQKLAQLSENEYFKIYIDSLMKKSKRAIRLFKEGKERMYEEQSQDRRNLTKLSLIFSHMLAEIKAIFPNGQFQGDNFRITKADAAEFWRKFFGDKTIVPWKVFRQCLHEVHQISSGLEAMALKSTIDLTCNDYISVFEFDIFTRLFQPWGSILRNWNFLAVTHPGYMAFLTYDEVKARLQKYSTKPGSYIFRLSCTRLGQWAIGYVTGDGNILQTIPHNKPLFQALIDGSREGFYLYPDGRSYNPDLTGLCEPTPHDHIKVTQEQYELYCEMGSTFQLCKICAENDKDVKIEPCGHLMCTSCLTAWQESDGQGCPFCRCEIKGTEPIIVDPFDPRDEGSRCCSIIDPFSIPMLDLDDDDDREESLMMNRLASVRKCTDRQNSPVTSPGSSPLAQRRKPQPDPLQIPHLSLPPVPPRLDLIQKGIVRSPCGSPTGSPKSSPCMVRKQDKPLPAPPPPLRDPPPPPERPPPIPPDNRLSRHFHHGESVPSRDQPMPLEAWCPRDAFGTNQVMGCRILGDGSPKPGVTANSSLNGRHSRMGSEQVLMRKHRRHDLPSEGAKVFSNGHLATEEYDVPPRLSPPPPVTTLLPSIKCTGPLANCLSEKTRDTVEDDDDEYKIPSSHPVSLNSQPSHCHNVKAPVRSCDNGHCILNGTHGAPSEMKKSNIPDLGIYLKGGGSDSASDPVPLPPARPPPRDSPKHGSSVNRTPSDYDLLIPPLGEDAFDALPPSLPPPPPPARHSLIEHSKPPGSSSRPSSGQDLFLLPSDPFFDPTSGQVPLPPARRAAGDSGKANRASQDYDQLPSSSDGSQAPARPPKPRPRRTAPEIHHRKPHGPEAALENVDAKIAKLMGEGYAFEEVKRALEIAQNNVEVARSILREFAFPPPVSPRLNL
UniProt P41241: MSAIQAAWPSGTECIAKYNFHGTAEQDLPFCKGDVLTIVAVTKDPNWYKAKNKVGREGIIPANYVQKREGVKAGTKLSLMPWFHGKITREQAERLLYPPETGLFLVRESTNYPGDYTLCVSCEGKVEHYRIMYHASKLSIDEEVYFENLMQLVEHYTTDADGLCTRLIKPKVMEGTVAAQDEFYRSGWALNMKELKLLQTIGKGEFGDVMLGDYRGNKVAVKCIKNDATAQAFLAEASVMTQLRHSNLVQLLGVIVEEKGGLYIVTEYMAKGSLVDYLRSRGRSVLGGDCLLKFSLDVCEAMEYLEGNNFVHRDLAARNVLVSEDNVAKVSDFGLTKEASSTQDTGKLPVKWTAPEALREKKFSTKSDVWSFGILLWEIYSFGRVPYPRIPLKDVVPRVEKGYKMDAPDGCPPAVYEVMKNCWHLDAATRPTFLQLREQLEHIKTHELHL
UniProt O08908: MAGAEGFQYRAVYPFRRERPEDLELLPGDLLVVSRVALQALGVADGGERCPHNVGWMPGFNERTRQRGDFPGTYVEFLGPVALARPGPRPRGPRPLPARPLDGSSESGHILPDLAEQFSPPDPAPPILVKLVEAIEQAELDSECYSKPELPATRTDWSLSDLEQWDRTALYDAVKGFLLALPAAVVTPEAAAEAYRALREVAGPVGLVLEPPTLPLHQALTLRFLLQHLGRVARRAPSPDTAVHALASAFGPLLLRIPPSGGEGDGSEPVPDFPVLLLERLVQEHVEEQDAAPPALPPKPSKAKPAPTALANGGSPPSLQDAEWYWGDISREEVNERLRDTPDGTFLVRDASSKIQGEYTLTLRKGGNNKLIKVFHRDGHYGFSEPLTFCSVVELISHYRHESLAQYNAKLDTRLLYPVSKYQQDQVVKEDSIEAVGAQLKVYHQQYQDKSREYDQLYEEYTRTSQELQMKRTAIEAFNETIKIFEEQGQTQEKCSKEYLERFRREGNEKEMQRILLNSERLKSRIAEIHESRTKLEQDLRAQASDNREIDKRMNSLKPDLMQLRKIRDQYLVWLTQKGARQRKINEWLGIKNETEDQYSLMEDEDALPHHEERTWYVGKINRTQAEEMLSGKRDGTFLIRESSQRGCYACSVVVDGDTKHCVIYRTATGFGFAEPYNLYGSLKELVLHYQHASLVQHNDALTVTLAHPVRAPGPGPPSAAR

Key:
Assay in all cases: co-IP; immunoprecipitation (1.5 h, Pansorbin) with anti-CBL, anti-CBLB, anti-CSK, anti-CRKL or anti-p85-PI3K from lysates (n-dodecyl-β-maltoside) of expanded mouse CD4+ T cells, unstimulated or stimulated 1 min with anti-CD3 + anti-CD4; immunoblot; isotype control; cells of wild-type, Cblb-/-, Cbl-/- and Cd5-/- mice
[1] = target: CBL (mouse (endogenous in CD4+ T cells)) (UniProt P22682)
[2] = target: CBLB (mouse (endogenous in CD4+ T cells)) (UniProt Q3TTA7)
[3] = target: CSK (mouse (endogenous in CD4+ T cells)) (UniProt P41241)
[4] = target: PIK3R2 (mouse (endogenous in CD4+ T cells)) (UniProt O08908)

B1: CD5 (receptor, UniProt P13379 24-494)
chain: QSGRGGLDIQVMLSGSNSKCQGQVEIQMENKWKTVCSSSWRLSQDHSKNAQQASAVCKQLRCGDPLALGPFPSLNRPQNQVFCQGSPWSISNCNNTSSQDQCLPLSLICLEPQRTTPPPTTTPPTTVPEPTAPPRLQLVPGHEGLRCTGVVEFYNGSWGGTILYKAKDRPLGLGNLICKSLQCGSFLTHLSGTEAAGTPAPAELRDPRPLPIRWEAPNGSCVSLQQCFQKTTAQEGGQALTVICSDFQPKVQSRLVGGSSVCEGIAEVRQRSQWEALCDSSAARGRGRWEELCREQQCGDLISFHTVDADKTSPGFLCAQEKLSQCYHLQKKKHCNKRVFVTCQDPNPAGLAPGTVASIILTLVLLVVLLAMCGPLVYKKLVKKFRQKKQRQWIGPTGVNQNMSFHRSHTATVRSQVENPTASHVDNEYSQPPRNSHLSAYPALEGALHRSSTQPDNSSDSDYDLQVAQRL
binding [1]: binds | binding [2]: binds | binding [3]: binds | binding [4]: no binding
